Among the data in article PMC2243017 are binding values, retold here.

By UniProt entry, the sequences of proteins in these tests, tags left out. Where a name states a change or a piece, a line headed by the entry shows the natural chain unless it says otherwise.
UniProt Q86Y07: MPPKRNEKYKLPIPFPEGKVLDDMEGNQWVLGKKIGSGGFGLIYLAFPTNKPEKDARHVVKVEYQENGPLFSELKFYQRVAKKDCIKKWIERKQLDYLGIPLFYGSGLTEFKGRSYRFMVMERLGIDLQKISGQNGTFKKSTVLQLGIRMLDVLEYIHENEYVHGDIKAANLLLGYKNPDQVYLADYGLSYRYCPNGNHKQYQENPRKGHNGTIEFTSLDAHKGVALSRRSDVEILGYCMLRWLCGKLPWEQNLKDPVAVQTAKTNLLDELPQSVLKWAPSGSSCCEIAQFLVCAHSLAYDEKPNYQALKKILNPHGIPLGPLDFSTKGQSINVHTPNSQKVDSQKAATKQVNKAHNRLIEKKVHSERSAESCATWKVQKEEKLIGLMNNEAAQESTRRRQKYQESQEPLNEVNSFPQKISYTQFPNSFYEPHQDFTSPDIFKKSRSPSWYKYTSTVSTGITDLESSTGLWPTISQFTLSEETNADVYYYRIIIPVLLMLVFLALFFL
UniProt P45983: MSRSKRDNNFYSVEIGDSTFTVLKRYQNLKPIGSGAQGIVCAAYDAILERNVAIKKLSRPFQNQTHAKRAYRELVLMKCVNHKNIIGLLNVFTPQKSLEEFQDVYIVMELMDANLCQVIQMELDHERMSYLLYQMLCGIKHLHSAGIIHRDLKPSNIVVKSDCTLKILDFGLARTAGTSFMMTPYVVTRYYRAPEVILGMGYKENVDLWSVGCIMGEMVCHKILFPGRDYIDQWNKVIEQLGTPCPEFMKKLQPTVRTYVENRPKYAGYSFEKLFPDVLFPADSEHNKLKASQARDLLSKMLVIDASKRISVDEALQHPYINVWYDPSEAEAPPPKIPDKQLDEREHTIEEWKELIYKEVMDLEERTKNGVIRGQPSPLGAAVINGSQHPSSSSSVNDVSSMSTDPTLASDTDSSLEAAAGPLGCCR

In assay [1] the target is T1, GST-JIP1 full-length fusion protein (UniProt Q9WVI9).
T1 sequence: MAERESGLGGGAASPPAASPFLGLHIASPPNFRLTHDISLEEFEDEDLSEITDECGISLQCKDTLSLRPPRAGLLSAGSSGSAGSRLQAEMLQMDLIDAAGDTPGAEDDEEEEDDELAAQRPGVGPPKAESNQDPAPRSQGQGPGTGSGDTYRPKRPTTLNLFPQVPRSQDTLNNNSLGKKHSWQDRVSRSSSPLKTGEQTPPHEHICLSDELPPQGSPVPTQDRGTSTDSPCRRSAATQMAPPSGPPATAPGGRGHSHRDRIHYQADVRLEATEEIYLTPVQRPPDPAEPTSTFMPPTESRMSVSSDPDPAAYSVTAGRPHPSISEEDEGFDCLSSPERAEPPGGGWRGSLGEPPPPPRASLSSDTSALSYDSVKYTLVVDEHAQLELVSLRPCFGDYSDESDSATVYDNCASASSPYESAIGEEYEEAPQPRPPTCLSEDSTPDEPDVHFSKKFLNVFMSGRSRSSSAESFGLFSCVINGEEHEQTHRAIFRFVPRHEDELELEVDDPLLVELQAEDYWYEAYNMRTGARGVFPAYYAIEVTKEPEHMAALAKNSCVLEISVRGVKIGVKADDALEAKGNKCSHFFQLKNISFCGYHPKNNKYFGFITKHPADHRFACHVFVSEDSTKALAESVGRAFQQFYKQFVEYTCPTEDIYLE
Briefly: pull-down; lysates of transfected Cos1 cells (48 h; 20 mM Tris-HCl pH 7.4, 137 mM NaCl, 2 mM EDTA, 1% Triton-X100) mixed with glutathione-Sepharose beads 12 h at 4°C to bring down the GST fusion protein; associated transfected or endogenous proteins detected by western blot. On the technique in general: Immunoblotting shows a protein as a band on a membrane.

The target in assay [2] is GST-VRK2A (mammalian expression) (human) (UniProt Q86Y07). The description is as above.
Assay [3] addresses T1, GST-JIP1 full-length fusion protein. Briefly: SEC; extracts of Cos1 cells transfected with pGST-JIP1 alone or with pHA-TAK1, pFlag-TAB1, pFlag-MKK7, pFlag-JNK, without or with pCEFL-HA-VRK2A or pCEFL-HA-VRK2B, fractionated on Superose 12 10/300 GL (50 mM Tris-HCl pH 7.5, 1 mM EDTA, 100 mM KCl); fractions analysed by western blot. For orientation: Size exclusion chromatography separates by hydrodynamic size, large species first.

The target of assay [4] is T2, GST-JIP1 (283-660), bacterially expressed (UniProt Q9WVI9).
T2 sequence: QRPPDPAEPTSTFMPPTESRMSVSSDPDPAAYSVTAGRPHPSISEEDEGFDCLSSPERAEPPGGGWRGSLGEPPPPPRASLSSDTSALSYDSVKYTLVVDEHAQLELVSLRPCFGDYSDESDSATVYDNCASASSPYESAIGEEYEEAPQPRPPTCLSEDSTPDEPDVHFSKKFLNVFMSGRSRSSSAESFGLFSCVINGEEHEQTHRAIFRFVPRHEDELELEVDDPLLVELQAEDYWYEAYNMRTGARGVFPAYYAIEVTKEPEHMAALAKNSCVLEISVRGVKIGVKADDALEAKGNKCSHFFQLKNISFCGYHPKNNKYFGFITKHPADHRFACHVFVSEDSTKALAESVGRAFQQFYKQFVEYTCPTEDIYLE
Nature of the assay: pull-down; 2 µg purified bacterial GST-JIP1 fusion protein incubated at 4°C for 2 h with 35S-labeled in vitro translated VRK2A in 50 mM Tris pH 7.4, 250 mM NaCl, 0.1% Triton X-100, 5 mM EDTA, 2 mM DTT; only the target purified.

These are yes or no findings as the source states them, for the method shown. For some of these results: In cells and extracts the contact can be indirect. Some entries that bind do so weakly or less than the wild type. For some of these results: Sequences can lack the tags named with a protein.

On to “Flag-JNK (from UniProt P45983 1-427) (enzyme)”, for which the figures for the binding entry in assay [1], in assay [2] and in assay [3] were “binds”, “no binding” and “binds”, respectively.

As to “VRK2A transcribed-translated in vitro, 35S-labelled (from UniProt Q86Y07-1 1-508) (enzyme)”, the binding entry in assay [4] is “binds”.
